In PubChem BioAssay AID1347423 (Functional Genomics Laboratory (NCATS/FGL), 2020):
Out of some 52,000 sequences screened, about 210 (0.4%) were called active.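 The calls were made as follows: active = gene whose silencing raises cell survival under the drug, median off-target-corrected z-score across its silencing RNAs 2 or more; inactive = the rest.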 This is one part of the list.

Test: Resistance to Poly (ADP-Ribose) Polymerase inhibitor: Gene Identification via Genome-wide siRNA Screen
Settings: mouse BRCA2 R2336H ES cells, olaparib, CellTiter-Glo viability; active compounds read high
How it was run: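 Genome-wide siRNA screen (3 siRNAs/gene, 20 nM) in mouse ES cells carrying hypomorphic BRCA2 R2336H; olaparib 500 nM added 48 h post-transfection, CellTiter-Glo viability 72 h later. Normalized to plate-median negative control; MAD z-scores, gene median, seed-adjusted.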

Sequence | z-score
CGGGCUAUGGAGUUGAAGATT against 2610024G14Rik | inactive: -0.546
GCAGUUACGUAGAAAGUCUTT against Prdx6-rs1 | inactive: -1.37
GGAAACGUAUGAACAAUAATT against Sema4f | inactive: 1.89
CCAAAGAUCUCAAAUAAAGTT against Tlk2 | inactive: 0.463
GGUCCUUCCUCAGAUCCCUTT against 5730457F11Rik | active: 1.66
GCUGGUAACAGAAUUUCUUTT against LOC213043 | inactive: -0.274
GGACUAUGCAGUUUUAUUGTT against Chrac1 | inactive: 0.995
GGCCAAGAUCCAAGACAAGTT against Uba52 | inactive: -3.69
GUGUGUGUGCAGUCCUCAUTT against Olfr1269 | inactive: -1.5
GGAUCUUCUUUGUUGGUGCTT against V1rc20 | inactive: -0.487
GCCCAUGAUAAAAGAAGAATT against Pex1 | inactive: -0.45
GGAUUGAGUGAACCCUCCCTT against Rpl36 | inactive: -2.95
GGGAAGGAAGAAUUUAUUUTT against 6430571L13Rik | inactive: 1.19
GGUCACAUUCGCUCUCUUGTT against Olfr1155 | inactive: 0.311
GCAUCACUGAUCUGUGAAUTT against 2610510J17Rik | inactive: -1.63
GGUGCACUGCCAAUUAUCUTT against Btbd11 | inactive: -0.216
GGAAAACUUUCAAAGAGAUTT against Mc4r | inactive: 2.07
GGCGGAUGGACUAAUUUACTT against Zap70 | inactive: -0.297
GGAGUGCUAUGACAAUUUUTT against Slc12a1 | inactive: 2.2
GAACAAGGCGGACUUCCAATT against Dad1 | inactive: -2.73
GCAGCACGAACUGAUGACGTT against Plcd3 | inactive: -0.572
GGCCGUGUCAUUCAUUGGCTT against Adssl1 | inactive: -1.34
GGAGCUCUUUUUGAACACUTT against Sgcg | inactive: 0.972
GGGUUGUCGUUCAGUUUACTT against Art2a | inactive: -0.383
GGACUUGAAAGACGAGAUATT against Cyp19a1 | inactive: 0.0662
GGAGGUGGUGAAUAAGGAUTT against Mcm7 | inactive: -2.2
GCAGUUGGGUUGGUAACUATT against Ash1l | inactive: -1.06

Sequence | z-score
GGUGGAGUCAGUAUAAAUCTT against 2210023C10Rik | inactive: -0.321
GGUUGUUAAAGGAAAACUATT against Olfr1023 | inactive: -0.715
GGUGAACUUCUUUGGUGCATT against Hsd11b2 | inactive: 2.51
GGAGAAUCAAUGAGUAUCCTT against Apoe | inactive: -0.872
GGAGGAAGAAGACUCAGAATT against Prkag2 | inactive: 1.96
GGAGGAAAAAAAACAGUGATT against Trim7 | inactive: -1.36
GGAUUGUCAAAAUGUGGACTT against Smyd2 | inactive: 0.805
GGACUACUCGGCCAUCAUUTT against Map3k6 | inactive: -1.95
GCAGAGCUAGCUGAAUUGCTT against AK122209 | inactive: 0.9
GGGCCAUCUCUCAAUUAUGTT against Gga2 | inactive: 0.0928
GGUAUAGCAAUUUCUACAATT against Chrna2 | inactive: 0.476
GGCAUUCAGGAAGUUACUGTT against Krtcap1 | inactive: 0.991
GGGCAGUCCGUUUCUUAACTT against Kptn | inactive: 0.972
GGUAAAAGCUACCAUUCAGTT against Ap2a2 | inactive: 0.972
GGAACUGAUGAUCCUCAUGTT against Ube2c | inactive: -2.58
CCAUUGCAUUACCGGUACCTT against Kcna6 | inactive: -0.83
CCACUUGUUAGGUUGCUGCTT against Neurog1 | inactive: -1.62
CCCAAGGACUAUGAAGUUGTT against Col1a2 | inactive: -1.05
GGUAUUAUGAGACAGGAAGTT against Pax5 | inactive: -2.89
GGGCAUUUCCCAAAACAUATT against Elovl2 | inactive: 0.546
CGAGAAUUCCUUGCUCUAATT against Mgat4a | inactive: -0.714
GGAGGUGUCAGAACACUGUTT against Csf1 | inactive: -0.569
GGGUUGGAAAUAAAUAACGTT against Commd9 | inactive: -0.38
CCAAGAUUUAUCAACUCAGTT against Aqp1 | inactive: -0.0269
CCUCAGAGUGAUAACUAAATT against Ctdsp1 | inactive: -0.169
GGACAAGAUAUCCAAGUGGTT against B930096L08Rik | inactive: -1.09
GGAGAACCUGUGUAAGAUUTT against 1700051E09Rik | inactive: 1.97

Sequence | z-score
GGAAACUAGAUAGGACAAATT against Podn | inactive: -0.848
GGUUCUCUGUAGUUUAAAATT against Selp | inactive: 1.94
GGACAAGGCAACACAUACCTT against Csnk1a1 | inactive: -2.97
GGAGUUUCUGGAAUGCAGGTT against Sec22l3 | inactive: -0.484
GGAUCUGAAGUACAAGAAUTT against 2810441K11Rik | inactive: 4.33
GAUGGUGUCUAUCGAGAGCTT against Oxct2a | inactive: 0.659
GGUUUACCAGGAAAAUUGATT against Txnrd3 | inactive: -0.846
GGAUUUUCUGAAGCAAUGCTT against Thedc1 | inactive: -0.196
GCUUACCUAUUAGCAGCUUTT against Apg16l | inactive: -0.829
GCAGUCGACAAAGUAUUUCTT against Msx3 | inactive: -0.261
CCUCUCACGCUACAGCUGUTT against Nfatc1 | inactive: 1.26
GCUGCCUGAGUCCAGUCUUTT against Ear14 | inactive: -1.66
GGAUCACAUGAAAGGAUUATT against Dclre1c | inactive: 2.75
GCUACUCAGCUGCUUAAGCTT against Rpl7a | inactive: -3.06
GGAUGAAGGAAUCCAUGCATT against Pcdhga6 | inactive: -1.01
GGCUCAGCUCAUGAACGACTT against Acvr2b | inactive: 0.356
GCCAUACAUAAACUACAAUTT against Gulo | inactive: 0.704
GCAACUGAACCUUCUGCUATT against Mopt | inactive: 0.936
GGUAAAUCAGAAGACUGAATT against Papd4 | inactive: -1.9
CGCAAAGUGGACAAACGUATT against Kcne3 | inactive: -0.197
GGGAUCCUCAGAAGGUGAATT against Hrbl | inactive: -0.159
GCAUCUCUCCAACCUUCCGTT against 2600011E07Rik | inactive: 0.799
CCACACUUCCCUUAUUUAATT against Arpc5 | inactive: 0.723
GGAUUUUUUGAUUACUGUGTT against p | inactive: 1.74
GGUGUUCGAUGGACGUGAUTT against Bmp1 | inactive: 0.439
CCAUGUUUAUGGCACGCUGTT against Postn | inactive: 1.2
GCAUAGCAAUGAAAAUCUATT against A930010E21Rik | inactive: -0.388

Sequence | z-score
GGAAUGAGCUGAAUGCAAATT against Psmc5 | inactive: -2.3
GGUGUAACACUCAUUUAUCTT against Ifitm3 | inactive: 0.917
GGAGAAUGACUACUAUACUTT against Itm1 | inactive: 0.0768
GCUUCUGGUGGUCAUAGCUTT against 3110005O21Rik | inactive: 1.39
GGGAAUGAAUUCAUCUAAATT against Tbc1d1 | inactive: 0.267
GAUGAAACCAAAGAAUGGCTT against AI604832 | inactive: -0.583
GGCACAGGUUUUCCAAGGUTT against Rp1hl1 | inactive: -0.33
GGCAAAGAGGAAAAGAGUGTT against Gtf2h2 | inactive: 3.07
GCCUUUGAUAGUGGUGAAUTT against F11r | inactive: -1.75
GGACGGUUCCUUCAUAGUATT against Kdelc1 | inactive: -0.894
GCCGAUUCUCAUAUUUGACTT against Exo1 | inactive: 0.209
GGUCAUUUUGUUUCGCUUUTT against Fgf5 | inactive: -0.338
GCAUCUCCCAACCAUGAUGTT against Myl3 | inactive: 2.08
GGAACUCCAACAGGACUUUTT against Slc26a9 | inactive: -0.568
CAGUUCCGUACAGUUUUACTT against Hist1h3a | inactive: 1.49
GCAAUAAGGGCAUUAUAAATT against Wdhd1 | inactive: -0.259
CCUAAUGAUGAGAUUAAUGTT against 1810024B03Rik | inactive: 0.285
GGUGAAAAGAGAUUUGAAUTT against Sp4 | inactive: -0.91
GGUGGCUAUUAAAAGUAUUTT against Ulk2 | inactive: 0.252
CCAAAUGCUAAGUAUACCUTT against 5730446C15Rik | inactive: -0.783
CCUACUUAUGCCUUGCCACTT against Rbpsuhl | inactive: 1.64
GGAUUGUUUAUCUGUCUUCTT against Cyp3a44 | inactive: 1.32
CGGUGCUCAUGUUUAACUGTT against BC065078 | inactive: -0.793
GGAGGUGACUAUCAUUUUUTT against Gng4 | inactive: 0.0976

Another view of some results above.
Sequence	z-score
GGCAAAGAGGAAAAGAGUGTT against Gtf2h2	inactive: 3.07
GCCUUUGAUAGUGGUGAAUTT against F11r	inactive: -1.75
GGACGGUUCCUUCAUAGUATT against Kdelc1	inactive: -0.894
GCCGAUUCUCAUAUUUGACTT against Exo1	inactive: 0.209
